Reference: PubChem BioAssay AID1508588 (Peter MacCallum Cancer Centre, 2020)
This is an unselected part of about 18,000 reagents. In the full data, 790 (4.4%) got an active call. 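Calls rest on a combination of fold-change classes in drug and vehicle arms, not all shown here.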 A number with no mark means an inactive call.

Screen: 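Genome-wide search for knock-downs that heighten vemurafenib action in melanoma cells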 (primary screen)
Cells: human WM266.4 melanoma cells (BRAF V600 mutant)
Reagent: siRNA pool against human genes, 40 nM
Duration: 96 h from transfection to read-out
Treatment: vemurafenib 300 nM (about IC25), added 48 h after transfection, for 48 h; comparison arm got DMSO vehicle only
Detection: 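Ratios to non-targeting siRNA for cell gain, counted as DAPI nuclei after minus before drug and averaged over two replicates, and for absorbance-read medium lactate per cell; both binned into fold-change classes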
Reading the numbers: cell gain with vemurafenib: higher = more cell gain than with non-targeting siRNA; lactate per cell with vemurafenib: higher = more lactate made per cell
Hit rule: 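a knock-down counts as enhancing when its fold-change classes with vehicle and with vemurafenib, taken together, show a stronger drug effect on cell gain or lactate per cell; exact class pairs not stated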
Meaning of the calls: active = enhances vemurafenib effect; inactive = no enhancement seen

After knock-down of RAP1A, the record shows cell gain with vemurafenib 0.44; lactate per cell with vemurafenib 0.81.
PLCD4 gave cell gain with vemurafenib 0.55; lactate per cell with vemurafenib 1.
For COQ4 the deposit lists cell gain with vemurafenib 0.67; lactate per cell with vemurafenib 0.89.
H2AB2 scored cell gain with vemurafenib 1.18; lactate per cell with vemurafenib 1.02.
Knock-down of CARD8 resulted in: cell gain with vemurafenib 0.6; lactate per cell with vemurafenib 0.74.
Depletion of CPNE9 came out at: cell gain with vemurafenib 0.54; lactate per cell with vemurafenib 0.87.
CREB3L3 showed cell gain with vemurafenib 0.68; lactate per cell with vemurafenib 0.58.
Knock-down of SWT1 gave: cell gain with vemurafenib 0.61; lactate per cell with vemurafenib 0.3.
For CYSLTR1, the entry reads cell gain with vemurafenib 1.13; lactate per cell with vemurafenib 1.
With knock-down of PDPN, the record shows cell gain with vemurafenib 0.62; lactate per cell with vemurafenib 0.72.
For CXCR5, the values are cell gain with vemurafenib 1.11; lactate per cell with vemurafenib 0.58.
After knock-down of RANBP17 the results were cell gain with vemurafenib 0.28; lactate per cell with vemurafenib 0.99.

Only “lactate per cell with vemurafenib” (4 entries from above):
SWT1 = 0.3
CYSLTR1 = 1
PDPN = 0.72
CXCR5 = 0.58

Additional records follow:
GNA11 scored cell gain with vemurafenib 0.45; lactate per cell with vemurafenib 1.31.
After knock-down of RNASEK, the record shows cell gain with vemurafenib 0.73; lactate per cell with vemurafenib 1.01.
LRCH1 gave cell gain with vemurafenib 0.78; lactate per cell with vemurafenib 0.54.
After knock-down of NPIPA1 the results were cell gain with vemurafenib 0.84; lactate per cell with vemurafenib 0.8.
For LINC02875, the values are cell gain with vemurafenib 0.38; lactate per cell with vemurafenib 1.36.
With knock-down of QRFP, the record shows cell gain with vemurafenib 0.61; lactate per cell with vemurafenib 1.66.
After knock-down of SGMS2 the results were cell gain with vemurafenib 0.93; lactate per cell with vemurafenib 0.32.
With knock-down of MUCL1, the screen gave cell gain with vemurafenib 0.6; lactate per cell with vemurafenib 1.52.
Against GTSF1L, the entry reads cell gain with vemurafenib 0.67; lactate per cell with vemurafenib 0.46.
Knock-down of CSTL1 came out at: cell gain with vemurafenib 0.84; lactate per cell with vemurafenib 0.56.
Depletion of APOO gave: cell gain with vemurafenib 0.48 (active); lactate per cell with vemurafenib 0.06.
After knock-down of CDCP1 the results were cell gain with vemurafenib 0.44; lactate per cell with vemurafenib 0.8.
WDCP scored cell gain with vemurafenib 0.79; lactate per cell with vemurafenib 0.22.
PPP2R2A scored cell gain with vemurafenib 0.33; lactate per cell with vemurafenib 0.52.
KCNQ3 scored cell gain with vemurafenib 0.63; lactate per cell with vemurafenib 0.96.
